Measured values as given in the supplement of paper PMC3334620.
In all, about 33,000 sequences were measured (“E-score (-0.5 to 0.5)”: median about -8e-05, highest 2% from about 0.23 on). Some of the results follow.

target: T1, Nrg2 (UniProt P38082); experiment: PBM E-score (8-mer binding enrichment) (E-score (-0.5 to 0.5)); higher = stronger / more preferred TF binding; conditions: protein concentration: 100 nM; construct: GST-full length
T1 sequence: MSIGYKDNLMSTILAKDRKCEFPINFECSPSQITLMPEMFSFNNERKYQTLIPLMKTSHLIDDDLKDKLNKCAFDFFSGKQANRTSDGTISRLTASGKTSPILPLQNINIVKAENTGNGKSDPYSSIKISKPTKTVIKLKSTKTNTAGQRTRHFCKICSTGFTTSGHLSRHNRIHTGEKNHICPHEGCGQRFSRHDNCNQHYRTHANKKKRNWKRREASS
Summary of the method: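 PURExpress in vitro transcription/translation supplied GST-tagged yeast transcription factors, either full-length or DNA-binding domain. Applied at about 100-200 nM to universal all-10-mer Agilent arrays double-stranded by primer extension, the bound protein was detected with fluorescent anti-GST. E-scores, modified Wilcoxon-Mann-Whitney statistics, were given by the Universal PBM Analysis Suite to ungapped eight-base words pooled with their reverse complements after masliner normalisation.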

| Sequence | PBM E-score |
| --- | --- |
| TCGTCGAA | -0.0313 |
| AGCTTTTG | -0.147 |
| CTGCTCCA | 0.00131 |
| GTTCTAGA | 0.0132 |
| AATTACGA | 0.0898 |
| CCTTGACG | -0.16 |
| GAGTCTTA | -0.215 |
| GGTCTCCA | 0.0144 |
| AGCCGCGC | 0.198 |
| CCATGACC | -0.159 |
| AGAGCGTG | -0.0499 |
| ATGCGAAA | 0.186 |
| CTTATCTA | 0.17 |
| ACACAGGT | 0.0453 |
| AGTGGGAC | -0.102 |
| ATAAGTAG | -0.0186 |
| AGGTGGCC | -0.236 |
| CACAAGGG | -0.0851 |
| AATGAAGA | 0.14 |
| AGATGCCA | -0.00436 |
| GGCCCGCA | -0.122 |
| CCTTCCAG | -0.146 |
| TCTCGACA | -0.00705 |
| CACCTAAC | -0.146 |
| CTGGTTTA | -0.132 |

| Sequence | PBM E-score |
| --- | --- |
| GCTTTCGA | -0.0826 |
| AGTACACA | 0.134 |
| CCACTTCG | -0.0208 |
| CAACTGTA | 0.0529 |
| CCCGAGGA | 0.0838 |
| ATGTCAGG | 0.0486 |
| ATTGTTTC | 0.256 |
| TCCCGTAA | -0.118 |
| CGACGCAG | -0.0381 |
| GCTGAAGA | -0.0685 |
| AACTGCAC | 0.0736 |
| AACAGCTG | -0.0209 |
| AGAGAAAG | -0.00961 |
| CAATCCGG | 0.0792 |
| ATTGCTCA | -0.0712 |
| CAGCTACC | -0.169 |
| AGATTGTG | 0.0755 |
| ATTTGCTC | 0.156 |
| CAGCGGAC | -0.0158 |
| AAGACAAA | 0.102 |
| ATACCTCA | -0.0226 |
| ATTACAAC | 0.0506 |
| CACTAAAG | 0.0777 |
| CTTTGATC | 0.0357 |
| TAAAGGTA | -0.086 |

Look-ups from the list:
CGACGCAG | PBM E-score: -0.0381
CTTTGATC | PBM E-score: 0.0357
AGATTGTG | PBM E-score: 0.0755
AAGACAAA | PBM E-score: 0.102
ATTACAAC | PBM E-score: 0.0506
CACTAAAG | PBM E-score: 0.0777
AGAGAAAG | PBM E-score: -0.00961

Later entries.

| Sequence | PBM E-score |
| --- | --- |
| CTGGATTC | 0.0298 |
| CAGCCCTG | -0.23 |
| ACTTCCTC | -0.07 |
| GCTCCCAC | -0.0607 |
| CAAACTAC | 0.00441 |
| AGCTGCCA | -0.061 |
| CGTTCCGC | -0.00432 |
| CCAGATCG | -0.089 |
| CCCACTTA | 0.122 |
| CGCAACAG | 0.101 |
| ACATAGAA | 0.157 |
| ATTTTCAA | 0.0248 |
| AAGTCGGC | -0.0424 |
| AATTTACG | 0.159 |
| ACCAGTCG | -0.149 |
| ATCGTGTC | 0.00655 |
| CAGAGAAA | 0.138 |
| GCTCACAC | -0.0643 |
| AGGCGAAT | 0.0758 |
| GGTACGAA | 0.11 |
| ATGCTGGG | -0.0566 |
| GAGATGCA | 0.0438 |
| CGCTTGAA | 0.263 |
| ATACATGG | 0.108 |
| CAATCCCA | 0.0276 |

| Sequence | PBM E-score |
| --- | --- |
| ATTAATGA | 0.235 |
| ACGTGAGG | -0.00632 |
| ATCAGAGG | -0.112 |
| AAACAATC | 0.0887 |
| AGGGGCGC | 0.15 |
| AAACTTTC | 0.0328 |
| AAGGAGCC | -0.118 |
| ACTTATAT | 0.227 |
| ATCTTTAA | 0.0308 |
| ACAGGCGT | -0.0962 |
| CTTTGATA | 0.0462 |
| AGGAGGAG | -0.267 |
| CGGTGTTC | -0.0806 |
| AAAGCCCC | -0.053 |
| CTTGTCTC | -0.00155 |
| CAAGATTA | 0.029 |
| CAAAAGAA | 0.218 |
| CTCTGTGC | -0.0288 |
| CCATGCTC | -0.297 |
| CAAAGCAG | 0.0557 |
| CACGAGAA | -0.0551 |
| CCATCGGA | -0.097 |
| CTCGTGAA | -0.0827 |
| GCGGTTAA | -0.0634 |
| GACCTAGC | -0.0292 |

Given with tabs: part of the list above
Sequence	PBM E-score
ACACAGGT	0.0453
AGGTGGCC	-0.236
TCCCGTAA	-0.118
ATACCTCA	-0.0226
ACGTGAGG	-0.00632
ACTTATAT	0.227
GACCTAGC	-0.0292

The list continues:

| Sequence | PBM E-score |
| --- | --- |
| GTGAACGA | -0.00481 |
| GCTTTTAC | -0.16 |
| CCGGCACA | -0.0589 |
| ATATAAAA | 0.0793 |
| AGAGGCCG | -0.303 |
| ACGGTTTA | -0.141 |
| ACTTATCT | 0.0669 |
| ATTGATGC | 0.123 |
| CGATCGAG | 0.0448 |
| GCATAACA | 0.0928 |
| GCATGGAC | 0.0746 |
| CTGAATCA | 0.0531 |
| CAGACCGG | -0.11 |
| CGAGACAC | -0.0459 |
| AGGCCAAC | -0.196 |
| GTTGTTTA | 0.118 |
| ATCTTGGA | -0.0153 |
| ACTCTAGA | -0.0152 |
| CATGCCCA | -0.262 |
| ACGAAAGG | 0.0599 |
| CCCTAATC | 0.0708 |
| ACACTCAT | 0.0544 |
| ACGAAGTC | 0.0773 |
| GCGGCCGC | -0.153 |
| AGCGTGTG | -0.0364 |

| Sequence | PBM E-score |
| --- | --- |
| CAACGACG | -0.0457 |
| ATAAACGA | 0.151 |
| CGCATGCG | 0.0387 |
| ACGGTCGA | -0.06 |
| CGTGGACA | -0.0634 |
| AACCGTTG | 0.0901 |
| ACAGGGCC | 0.295 |
| CTACAGCC | -0.132 |
| CTAGGAAC | -0.0227 |
| AAAACTGC | -0.102 |
| CTGAATGA | 0.188 |
| AAAGCCGT | -0.124 |
| ATCTTTTA | 0.0288 |
| GCACGGGC | -0.0455 |
| ACGCGTCT | 0.0389 |
| GACGTCAA | 0.0666 |
| AGCCCCTG | 0.0357 |
| ATAGAAGG | -0.0977 |
| AACCCTAA | 0.123 |
| GCAAGTGC | -0.141 |
| CTGCGCTC | -0.146 |
| AGTGCCCG | 0.114 |
| AACGTAAA | 0.128 |
| ATAGGTCC | 0.172 |
| ATGATGTG | 0.0984 |

| Sequence | PBM E-score |
| --- | --- |
| CGTCAGAC | 0.0774 |
| AGATTTTC | 0.0765 |
| CACGGCAG | 0.0482 |
| AACGGCGC | -0.0257 |
| CGTCCGAA | -0.0969 |
| GTCTTTTA | -0.195 |
| CTGCCATC | 0.0751 |
| AAGTGGTC | 0.0333 |
| GAGGTACC | 0.0253 |
| ACCCGCTA | 0.0219 |
| CGACACCC | 0.072 |
| ATTCTGTA | -0.0512 |
| AGAAGTAA | 0.152 |
| AAATTATG | 0.106 |
| CATGTCCC | -0.0199 |
| CGCATCTA | 0.146 |
| CCGTTAAG | -0.0885 |
| TGCAATAA | 0.207 |
| GATCAGCC | -0.275 |
| ATTGACGG | -0.00219 |
| CGGTAGAA | -0.275 |
| AACGTGAC | -0.0263 |
| CGGATTGA | 0.156 |
| AGTTTGGG | 0.0374 |
| AGCGGATC | 0.0826 |

| Sequence | PBM E-score |
| --- | --- |
| AGCAAAAC | 0.0481 |
| AATGATGC | 0.044 |
| AATCAGTG | 0.0261 |
| ACCACCAG | 0.0201 |
| GCCCTTAC | -0.147 |
| CTATAAGA | -0.0182 |
| GCGGGCAC | -0.0529 |
| ACTCGAGA | 0.0451 |
| CAGGGGCC | 0.191 |
| TCCGTCGA | 0.123 |
| GTCATCGA | -0.028 |
| CTCCTCAG | -0.192 |
| CTTCCAGC | -0.285 |
| TCGAAACA | 0.232 |
| GGCGCGCA | 0.168 |
| ATGCTTTA | -0.178 |
| TCCTGCGA | 0.0145 |
| CGGAGGTA | -0.103 |
| AGCTTTTC | -0.141 |
| AGAGGTCG | -0.00188 |
| CTCGAGTA | 0.172 |
| AGGTTACG | -0.0385 |
| CTTGTAAC | -0.0137 |
| ACATTAGT | 0.0206 |
| GTAAGCAA | 0.0284 |

| Sequence | PBM E-score |
| --- | --- |
| CCGCAGTA | -0.0214 |
| AATACTTA | -0.0116 |
| TACGAGGA | -0.094 |
| TAATTCGA | 0.0602 |
| ATACTTAA | 0.215 |
| AATGCAAC | 0.127 |
| CTTTTGGC | 0.00456 |
| ATTTCAGC | -0.038 |
| CTGACATC | 0.106 |
| CAGTTTAA | -0.0382 |
| ACCTGGGA | 0.01 |
| GATTCATA | 0.176 |
| CAAAGAGG | 0.0966 |
| CAATAGCC | -0.0879 |
| CTAGGAGC | -0.0101 |
| AATCGACT | -0.0229 |
| CCTAGCAA | -0.0644 |
| ACGTGACT | -0.171 |
| TGGTTCAA | 0.103 |
